Test results as given in doi:10.1101/2022.07.19.500578.
Numbering of substitutions follows the chain as printed. In names and notes the source's numbering stands. No constants are given. Whether binding was seen depends on the method and setting. In cells and extracts the contact can be indirect. Some binding calls cover weakened binding; strength is not graded here.

By UniProt entry, the sequences of proteins in these tests, tags left out. Where a name states a change or a piece, a line headed by the entry shows the natural chain unless it says otherwise. Residues count along the entry.
UniProt Q13467, 27-585: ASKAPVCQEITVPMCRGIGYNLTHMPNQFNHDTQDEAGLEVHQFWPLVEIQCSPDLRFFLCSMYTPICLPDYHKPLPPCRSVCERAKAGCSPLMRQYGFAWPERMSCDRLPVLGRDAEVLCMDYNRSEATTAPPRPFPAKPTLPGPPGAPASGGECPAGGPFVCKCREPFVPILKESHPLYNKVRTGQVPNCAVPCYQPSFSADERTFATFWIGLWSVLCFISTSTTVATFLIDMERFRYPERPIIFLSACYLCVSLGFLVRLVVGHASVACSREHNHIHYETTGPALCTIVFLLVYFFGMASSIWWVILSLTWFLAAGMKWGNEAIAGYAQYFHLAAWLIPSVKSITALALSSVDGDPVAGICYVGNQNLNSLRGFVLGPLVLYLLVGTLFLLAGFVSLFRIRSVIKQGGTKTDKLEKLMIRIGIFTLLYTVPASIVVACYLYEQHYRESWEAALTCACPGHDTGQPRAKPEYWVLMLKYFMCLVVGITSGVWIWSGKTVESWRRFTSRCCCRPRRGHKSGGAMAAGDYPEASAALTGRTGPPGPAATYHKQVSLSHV

B1: DEP-Venus (domain or fragment, UniProt O14641 418-510)
chain: SVHTDMASVTKAMAAPESGLEVRDRMWLKITIPNAFLGSDVVDWLYHHVEGFPERREARKYASGLLKAGLIRHTVNKITFSEQCYYVFGDLSG
B2: DEP-Venus G436P (domain or fragment, UniProt O14641 418-510)
chain: B1 chain with G19P
B3: DEP-Venus K446M (domain or fragment, UniProt O14641 418-510)
chain: B1 chain with K29M
B4: DEP-Venus L445E (domain or fragment, UniProt O14641 418-510)
chain: B1 chain with L28E

target: HA-FZD5-Nluc (UniProt Q13467); assay: FRET or BRET

| Binder | binding |
| --- | --- |
| B1 | binds |
| B2 | binds |
| B3 | binds |
| B4 | no binding |
